{"source": "PubChem BioAssay AID652243 (Drosophila RNAi Screening Center, 2013)", "assay": "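Fly regulators of androgen-dependent reporter output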 (primary screen)", "cell system": "Drosophila S2R+ cells", "reagents": "long dsRNA against Drosophila genes", "time to read-out": "72 h (48 h, then 24 h hormone)", "conditions": "synthetic androgen R1881 at 10 nM for 24 h", "read-out": "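Per-well raw luminescence of the androgen-driven firefly reporter and of the Renilla control, two replicates each, without normalisation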", "scale": "firefly reporter light: higher = more light from androgen-responsive reporter; Renilla control light: higher = more constitutive control signal (cell number, transfection)", "rule for the call": "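Across duplicate plates, a knock-down whose log firefly/Renilla ratio shifted a set fold down or up from the GFP/LacZ control mean was a hit; the downward cut appears as both 1.5 and 3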", "meaning of the calls": "active = hit: reporter lowered or raised; inactive = no hit", "note": "In all, the deposit lists about 24,000 reagents; shown is a random part of those that have a named target and a result. In the full data, 246 (1%) are marked active. 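Plates not normalised; calls are printed but the firefly/Renilla ratio behind them is not deposited; fold cut for lowering reported inconsistently.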 The raw values are shown without normalisation. Reagents against one gene are numbered here. Reagent sequences are not shown. Not stated in the record: the amount of reagent."}
{"target gene":"CG10494","dsRNA no.":1,"firefly reporter light, replicate 1":1.03e6,"firefly reporter light, replicate 2":1.11e6,"Renilla control light, replicate 1":2.47e6,"Renilla control light, replicate 2":2.35e6,"Call":"inactive"}
{"target gene":"CG10494","dsRNA no.":2,"firefly reporter light, replicate 1":5.64e5,"firefly reporter light, replicate 2":2.68e5,"Renilla control light, replicate 1":1.08e6,"Renilla control light, replicate 2":5.93e5,"Call":"inactive"}
{"target gene":"ND-B16.6","dsRNA no.":1,"firefly reporter light, replicate 1":2.14e5,"firefly reporter light, replicate 2":2.63e5,"Renilla control light, replicate 1":2.26e6,"Renilla control light, replicate 2":3.28e6,"Call":"inactive"}
{"target gene":"ND-B16.6","dsRNA no.":2,"firefly reporter light, replicate 1":6.74e5,"firefly reporter light, replicate 2":6.35e5,"Renilla control light, replicate 1":8.78e5,"Renilla control light, replicate 2":7.15e5,"Call":"inactive"}
{"target gene":"ND-B16.6","dsRNA no.":3,"firefly reporter light, replicate 1":2.69e5,"firefly reporter light, replicate 2":2.75e5,"Renilla control light, replicate 1":8.20e5,"Renilla control light, replicate 2":8.39e5,"Call":"inactive"}
{"target gene":"sni","dsRNA no.":1,"firefly reporter light, replicate 1":1.05e5,"firefly reporter light, replicate 2":1.04e5,"Renilla control light, replicate 1":7.05e5,"Renilla control light, replicate 2":9.47e5,"Call":"inactive"}
{"target gene":"sni","dsRNA no.":2,"firefly reporter light, replicate 1":4.09e5,"firefly reporter light, replicate 2":2.92e5,"Renilla control light, replicate 1":9.52e5,"Renilla control light, replicate 2":5.64e5,"Call":"inactive"}
{"target gene":"sni","dsRNA no.":3,"firefly reporter light, replicate 1":5.92e5,"firefly reporter light, replicate 2":4.94e5,"Renilla control light, replicate 1":1.87e6,"Renilla control light, replicate 2":1.83e6,"Call":"inactive"}
{"target gene":"lab","dsRNA no.":1,"firefly reporter light, replicate 1":81380,"firefly reporter light, replicate 2":94069,"Renilla control light, replicate 1":1.53e6,"Renilla control light, replicate 2":1.76e6,"Call":"inactive"}
{"target gene":"lab","dsRNA no.":2,"firefly reporter light, replicate 1":8.63e5,"firefly reporter light, replicate 2":6.61e5,"Renilla control light, replicate 1":5.52e5,"Renilla control light, replicate 2":5.90e5,"Call":"inactive"}
{"target gene":"nrv1","dsRNA no.":1,"firefly reporter light, replicate 1":4.85e5,"firefly reporter light, replicate 2":7.07e5,"Renilla control light, replicate 1":1.43e6,"Renilla control light, replicate 2":1.72e6,"Call":"inactive"}
{"target gene":"Femcoat","dsRNA no.":1,"firefly reporter light, replicate 1":1.01e5,"firefly reporter light, replicate 2":1.67e5,"Renilla control light, replicate 1":2.46e6,"Renilla control light, replicate 2":2.50e6,"Call":"inactive"}
{"target gene":"Femcoat","dsRNA no.":2,"firefly reporter light, replicate 1":3.64e5,"firefly reporter light, replicate 2":3.05e5,"Renilla control light, replicate 1":1.14e6,"Renilla control light, replicate 2":1.53e6,"Call":"inactive"}
{"target gene":"Cyp6a19","dsRNA no.":1,"firefly reporter light, replicate 1":1.33e6,"firefly reporter light, replicate 2":1.12e6,"Renilla control light, replicate 1":2.31e6,"Renilla control light, replicate 2":2.09e6,"Call":"inactive"}
{"target gene":"Tmtc3","dsRNA no.":1,"firefly reporter light, replicate 1":6.78e5,"firefly reporter light, replicate 2":5.72e5,"Renilla control light, replicate 1":2.00e6,"Renilla control light, replicate 2":1.63e6,"Call":"inactive"}
{"target gene":"Eip63F-1","dsRNA no.":1,"firefly reporter light, replicate 1":2.41e5,"firefly reporter light, replicate 2":2.52e5,"Renilla control light, replicate 1":2.69e6,"Renilla control light, replicate 2":3.50e6,"Call":"inactive"}
{"target gene":"Eip63F-1","dsRNA no.":2,"firefly reporter light, replicate 1":5.27e5,"firefly reporter light, replicate 2":4.56e5,"Renilla control light, replicate 1":6.06e5,"Renilla control light, replicate 2":4.53e5,"Call":"inactive"}
{"target gene":"CG42361","dsRNA no.":1,"firefly reporter light, replicate 1":3.50e5,"firefly reporter light, replicate 2":2.69e5,"Renilla control light, replicate 1":2.12e6,"Renilla control light, replicate 2":1.52e6,"Call":"inactive"}
{"target gene":"Tti1","dsRNA no.":1,"firefly reporter light, replicate 1":1.05e5,"firefly reporter light, replicate 2":81445,"Renilla control light, replicate 1":2.20e6,"Renilla control light, replicate 2":2.05e6,"Call":"inactive"}
{"target gene":"Tti1","dsRNA no.":2,"firefly reporter light, replicate 1":2.49e5,"firefly reporter light, replicate 2":2.73e5,"Renilla control light, replicate 1":3.95e5,"Renilla control light, replicate 2":8.50e5,"Call":"inactive"}
{"target gene":"Egm","dsRNA no.":1,"firefly reporter light, replicate 1":1.09e6,"firefly reporter light, replicate 2":1.03e6,"Renilla control light, replicate 1":2.73e6,"Renilla control light, replicate 2":3.46e6,"Call":"inactive"}
{"target gene":"Egm","dsRNA no.":2,"firefly reporter light, replicate 1":5.22e5,"firefly reporter light, replicate 2":1.10e6,"Renilla control light, replicate 1":4.83e5,"Renilla control light, replicate 2":6.64e5,"Call":"inactive"}

An excerpt from above, reduced to “Renilla control light, replicate 1”.
CG42361: 2.12e6
Tti1 #1: 2.20e6
